Data taken from US20210169914.

Experiments:
FUS (Homo sapiens) = biological target: T1, FUS (Homo sapiens) (UniProt P35637); assay: inhibition of the protein; conditions: purified recombinant protein
T1 sequence: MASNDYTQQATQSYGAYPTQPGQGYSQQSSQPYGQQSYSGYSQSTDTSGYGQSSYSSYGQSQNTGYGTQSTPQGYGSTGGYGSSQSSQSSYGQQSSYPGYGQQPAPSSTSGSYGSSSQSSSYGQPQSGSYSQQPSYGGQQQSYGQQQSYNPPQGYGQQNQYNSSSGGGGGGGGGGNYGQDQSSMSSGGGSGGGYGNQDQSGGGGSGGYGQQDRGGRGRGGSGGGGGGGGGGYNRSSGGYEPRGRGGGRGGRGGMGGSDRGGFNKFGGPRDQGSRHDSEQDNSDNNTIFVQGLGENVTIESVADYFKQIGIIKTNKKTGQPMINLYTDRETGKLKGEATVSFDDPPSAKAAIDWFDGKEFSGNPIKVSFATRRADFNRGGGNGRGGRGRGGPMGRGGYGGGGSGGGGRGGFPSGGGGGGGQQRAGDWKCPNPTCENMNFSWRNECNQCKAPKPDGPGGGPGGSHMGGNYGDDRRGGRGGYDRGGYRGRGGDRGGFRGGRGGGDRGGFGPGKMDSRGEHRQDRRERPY

[1] = biological target: T2, FUS 4FL F305L,F341L,F359L,F368L (Homo sapiens) (UniProt P35637); assay: inhibition of the protein; conditions: purified recombinant protein
T2 sequence: T1 sequence with F305L, F341L, F359L, F368L

[2] = biological target: optoTDP43 (Cry2olig-TDP-43-mCherry) (Homo sapiens) (UniProt Q13148); assay: activity in cells; conditions: protein in cells, protein details: N-terminal Cry2olig, C-terminal mCherry
[3] = biological target: T3, optoFUS (Cry2-mCh-FUS) (Homo sapiens) (UniProt P35637); assay: activity in cells; conditions: protein in cells, protein details: N-terminal Cry2-mCherry fusion, HEK293 cells
T3 sequence: T1 sequence

[4] = biological target: TDP-43 RRMs (Homo sapiens) (UniProt Q13148); assay: binding assay; conditions: [none]; CITED Ayala 2011, Bhardwaj 2013; SEQ 13 is the 2'OMe form; letters built from the parent sequence and the stated change
[5] = strong aggregation inhibitor, 5 uM FUS, 20 uM RNA
[6] = intermediate aggregation inhibitor, 5 uM FUS, 20 uM RNA

AAAAAAAAAAAAAAAAAAAAAAAAAGUGAAGGCAGAGAGGGGUUAAGG [RNA26]
functional effect (FUS (Homo sapiens); [5]): active

AAACGGUCUGAUAAACGGUCUGAU [RNA14]
functional effect (FUS (Homo sapiens); [6]): active

AAAGCGGCGAUGAAAGCGGCGAUG [RNA29]
functional effect (FUS (Homo sapiens); [6]): active

AACCUUCGUAAACCUUCGUAAACCUUCGUAAACCUUCGUA [RNA27]
functional effect (FUS (Homo sapiens); [6]): active

ACCAUGAUCACGAAGGUGGUUUUCCCAGGGCGAGGCUUA [RNA31]
functional effect [1]: not active
functional effect (FUS (Homo sapiens); [5]): active

AUGUCGCAGAAUGUCGCAGAAUGUCGCAGAAUGUCGCAGA [RNA17]
functional effect (FUS (Homo sapiens); [6]): active

AUUGAGGAGCAGCAGAGAAGUUGGAAAAAAAAAAAAAAAAAAAAAAAA [RNA25]
functional effect (FUS (Homo sapiens); [5]): active

AUUGAGGAGCAGCAGAGAAGUUGGAGUGAAGGCAGAGAGGGGUUAAGG [RNA19]
functional effect [1]: less active
functional effect (FUS (Homo sapiens); strong inhibitor and disaggregator in turbidity assay, pellet reduced about 50% at 30 min, about 10% at 90 min): active

CCAAUCUUCCUUCCAAUCUUCCUU [RNA11]
functional effect (FUS (Homo sapiens); [6]): active

CGCGCGCGCGCGCGCGTGTGTGTGTGTGTGTGTGTGTGTGCGCGCGCGCGCGCGCG [SL_TG24]
functional effect ([2]; 2'-OMe [1-56 (2'-OMe)], complete rescue of viability at 50 and 100 nM, single-stranded DNA, letters built from the parent sequence and the stated change): active

CGCUGGCAUCCACGCUGGCAUCCA [RNA28]
functional effect (FUS (Homo sapiens); [6]): active

CUAGGAUGGAGGUGGGGAAUGGUAC [RNA2'S1]
functional effect ([3]; 2'-OMe at every nucleotide [1-25 (2'-OMe)], inhibits and clears optoFUS inclusions, letters built from the parent sequence and the stated change, variant of RNA8 / RNAS1): active

CUAGGAUGGAGGUGGGGAAUGGUAC [RNA8 / RNAS1]
functional effect ([3]; dose-dependent inhibition and clearance of optoFUS inclusions, 0.5-2.5 uM): active
functional effect [1]: less active
functional effect (FUS (Homo sapiens); strong inhibitor and disaggregator in turbidity assay, 5 uM FUS, 20 uM RNA, pellet reduced about 60% at 90 min): active

CUCCGGAUGUGCUGACCCCUGCGAUUUCCCCAAAUGUGGGAAA [RNA32]
functional effect ([1]; modest disaggregation of 4FL, perhaps residual binding): less active
functional effect (FUS (Homo sapiens); [5]): active

GAAAAUUAAUGUGUGUGUGUGGAAAAUU [RNA1]
functional effect (FUS (Homo sapiens); [6]): active

GACUGAAAAAGGUGGGUUUCUUUU [RNA7]
functional effect (FUS (Homo sapiens); [5]): active

GAGAGAGCGCGUGCAGAGACUUGGUGGUGCAUAA [2'OMe Clip_34nt]
functional effect ([2]; 2'-OMe [1-34 (2'-OMe)], dose-dependent reduction of optoTDP43 assemblies in HEK293 and neurons, 200-1000 nM, letters built from the parent sequence and the stated change, variant of Clip_34nt (unmodified)): active

GAGAGAGCGCGUGCAGAGACUUGGUGGUGCAUAA [Clip_34nt (unmodified)]
pKd [4]: 6.95

GAGGUGGCUAUGGAGGUGGCUAUG [RNA22 (RNA15/2)]
functional effect (FUS (Homo sapiens); shortened RNA15 is intermediate inhibitor, no disaggregation activity, variant of RNA15): less active

GAGGUGGCUAUGGAGGUGGCUAUGGAGGUGGCUAUGGAGGUGGCUAUG [RNA15]
functional effect [1]: less active
functional effect (FUS (Homo sapiens); strong inhibitor and disaggregator in turbidity assay, pellet reduced about 40% at 90 min): active

GAUGGAUUCCAGGAUGGAUUCCAG [RNA13]
functional effect (FUS (Homo sapiens); [6]): active

GGUGAGCACAGAGGUGAGCACAGA [RNA10]
functional effect (FUS (Homo sapiens); [6]): active

GUGGUGGCUAUGGAGGUGGCUAUG [RNA15/2(A-U)]
functional effect (FUS (Homo sapiens); A-U mutation significantly weakened inhibition vs RNA22, variant of RNA22 (RNA15/2)): less active

UAUUGAUCCGGUUAUUGAUCCGGU [RNA30]
functional effect (FUS (Homo sapiens); [6]): active

UCAGAGACAUCAUCAGAGACAUCAUCAGAGACAUCAUCAGAGACAUCA [RNA9^2]
functional effect (FUS (Homo sapiens); increased inhibition and gained disaggregation vs RNA9, variant of RNA9): active

UGUAUUUUGAGCUAGUUUGCUGAU [control RNA]
functional effect ([3]; described as non-binding control, no significant effect): not active

UGUGUGUGUGUGUGUGUGUGUGUG [UG12]
functional effect ([2]; 50 nM prevents inclusions): active

UUGUAUUUUGAGCUAGUUUGGUGAU [RNA2]
functional effect (FUS (Homo sapiens); [6]): active

Residue numbers refer to the chain shown, from its start. pKd: −log10 of the molar value. For some of these results: Negatives hold for the conditions tested. For some of these results: Protein sequences can lack the tags named with them. For some of these results: Weaker means in comparison with the reference protein, sequence or condition of that experiment. For some of these results: The exact form of at least one protein or probe is not confirmed.
